# Source: patent US20260250769
# Target: DUX4-fl (Homo sapiens) (UniProt Q9UBX2)
# Test: activity in cells
# Conditions: RD cells, protein in cells, protein details: pCS2 or lentiviral expression
# [1] = luciferase, pGL3-promoter, transcription activated, only the site is given
Sequence,activity on this sequence [1],"activity on this sequence (1.9 kb ZSCAN4 enhancer/promoter containing these sites, pGL3-basic)"
AATCACGTCTTTAAATCAATCACTGACATGG (double strand) [ZSCAN4 reporter site],active,
AGGAGTGATGATAATTTAATCAGCCGTGCAA (double strand) [TRIM48 reporter site],active,
AGTAATTCAATCAACAGACAAGTGTTATCCAATCACGTCTTTAAATCAATCACTGACATGGAGCTGGGGCTGGATGAAGATTCCATCAGTAATTCAATCAACAGACAAGTGTTATCCAATCACGTCTTTAAATCAATCACT (double strand) [ZSCAN4 enhancer DUX4 sites],,active
